{
  "source": "PubChem BioAssay AID449746",
  "about": "(Sanford-Burnham Center for Chemical Genomics, 2010)",
  "note": "The entries are a selection whose mix differs from that of the whole data set. Calls of active or inactive are those of the source. Rule as the data show it: active = inhibition mostly above about 28% (no sharp cut-off); inactive = mostly below about 22%.",
  "data": [
    {"test": "PMA/ionomycin-induced NF-kB reporter inhibitors, 697 retest, confirmation, B-cell NF-kB inhibitor project, cell-based, luminescence, single concentration (AID 449746)", "settings": "697 B-cell NF-kB luciferase, 16 h, at 4 µM, hits give high values", "values": [
      {"smiles": "CN[C@H]1C[C@H]2O[C@@](C)([C@H]1OC)n1c3ccccc3c3c4c(c5c6ccccc6n2c5c31)C(=O)NC4", "inhibition": "active: 105%"}
    ]}
  ]
}
